For assay [1], the target named is β2-adrenergic receptor (β2AR), full-length, integrated into nanolipoprotein particles (β2AR-NLPs) (human) (UniProt P07550). In words: condition: only with the antagonist ICI118551 (ICI, 10 μM); pull-down; single-molecule pull-down (SiMPull): as a1, but with 10 μM ICI118551 (antagonist) in place of isoproterenol; only the target purified.
Assay [2] shares this target. In words: pull-down; single-molecule pull-down (SiMPull): purified β2AR-NLPs immobilized on a chip via biotinylated anti-flag antibody and NeutrAvidin; Gs-mCherry HEK cell lysate diluted 1:10 in T50 buffer (50 mM NaCl, 10 mM Tris-HCl, pH 7.8) with 10 μM isoproterenol (agonist), 10 min at RT; fluorescent spots counted by TIRF microscopy; only the target purified.

Sequences of proteins named here, by UniProt entry; tags and fusion partners are left off.
UniProt P63095: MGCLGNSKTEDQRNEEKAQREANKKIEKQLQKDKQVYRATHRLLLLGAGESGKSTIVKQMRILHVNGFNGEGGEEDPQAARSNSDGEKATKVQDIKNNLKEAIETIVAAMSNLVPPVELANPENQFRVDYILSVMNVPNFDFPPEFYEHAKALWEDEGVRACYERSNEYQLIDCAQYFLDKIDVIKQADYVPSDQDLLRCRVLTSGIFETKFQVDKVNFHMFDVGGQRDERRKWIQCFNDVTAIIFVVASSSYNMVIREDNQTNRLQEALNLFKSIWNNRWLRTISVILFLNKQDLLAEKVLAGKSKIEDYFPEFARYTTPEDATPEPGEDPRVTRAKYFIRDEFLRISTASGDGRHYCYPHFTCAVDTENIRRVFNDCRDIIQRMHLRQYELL

No constants are given. Whether binding was seen depends on the method and setting. Binding seen in cells or lysates may run through a third protein. Some entries that bind do so weakly or less than the wild type.

Take “mCherry-labeled Gs protein (from UniProt P63095 1-394)”: the binding entry in assay [1] is reported as “no binding”; in assay [2] it was “binds”.

Values taken from publication PMC5824837.
